According to doi:10.1101/2020.01.09.900548:
Results are given in words; binding and its absence hold for the method and conditions named. Binding seen in cells or lysates may run through a third protein. Here binding means that the protein was enriched with, or labelled near, the bait; the list need not be complete. Tags and fused reporters may be left off the sequences shown.

The chains behind the UniProt entries cited, without tags or fusion partners.
UniProt Q16531: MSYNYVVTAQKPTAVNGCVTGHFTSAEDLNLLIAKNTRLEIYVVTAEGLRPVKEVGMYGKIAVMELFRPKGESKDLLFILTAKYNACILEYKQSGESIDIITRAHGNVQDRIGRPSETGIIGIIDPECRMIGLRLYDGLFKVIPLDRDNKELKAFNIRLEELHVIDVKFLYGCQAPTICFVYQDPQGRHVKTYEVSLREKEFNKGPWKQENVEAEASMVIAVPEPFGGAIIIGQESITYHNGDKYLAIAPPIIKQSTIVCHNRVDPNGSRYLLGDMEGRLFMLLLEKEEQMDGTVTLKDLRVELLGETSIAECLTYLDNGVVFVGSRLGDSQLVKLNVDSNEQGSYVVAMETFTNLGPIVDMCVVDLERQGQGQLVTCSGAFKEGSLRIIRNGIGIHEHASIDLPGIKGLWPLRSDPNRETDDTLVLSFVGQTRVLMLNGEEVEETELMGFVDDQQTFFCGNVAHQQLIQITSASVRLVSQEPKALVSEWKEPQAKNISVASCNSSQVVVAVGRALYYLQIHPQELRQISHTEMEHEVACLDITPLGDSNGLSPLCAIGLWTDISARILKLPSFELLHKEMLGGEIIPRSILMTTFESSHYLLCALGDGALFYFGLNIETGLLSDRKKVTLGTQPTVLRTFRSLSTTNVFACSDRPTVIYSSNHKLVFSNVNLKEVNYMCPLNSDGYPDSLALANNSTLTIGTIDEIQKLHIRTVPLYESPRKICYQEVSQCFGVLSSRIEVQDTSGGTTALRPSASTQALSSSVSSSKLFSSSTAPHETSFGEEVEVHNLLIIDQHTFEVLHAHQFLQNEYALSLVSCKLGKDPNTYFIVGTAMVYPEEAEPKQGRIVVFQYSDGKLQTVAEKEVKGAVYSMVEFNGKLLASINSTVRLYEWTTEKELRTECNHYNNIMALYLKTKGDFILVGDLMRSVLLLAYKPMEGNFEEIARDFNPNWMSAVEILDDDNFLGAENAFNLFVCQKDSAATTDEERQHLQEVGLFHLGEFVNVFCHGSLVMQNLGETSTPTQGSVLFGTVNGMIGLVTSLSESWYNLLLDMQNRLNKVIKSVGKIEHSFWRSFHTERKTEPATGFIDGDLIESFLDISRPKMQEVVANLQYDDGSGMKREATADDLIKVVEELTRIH
UniProt Q13547: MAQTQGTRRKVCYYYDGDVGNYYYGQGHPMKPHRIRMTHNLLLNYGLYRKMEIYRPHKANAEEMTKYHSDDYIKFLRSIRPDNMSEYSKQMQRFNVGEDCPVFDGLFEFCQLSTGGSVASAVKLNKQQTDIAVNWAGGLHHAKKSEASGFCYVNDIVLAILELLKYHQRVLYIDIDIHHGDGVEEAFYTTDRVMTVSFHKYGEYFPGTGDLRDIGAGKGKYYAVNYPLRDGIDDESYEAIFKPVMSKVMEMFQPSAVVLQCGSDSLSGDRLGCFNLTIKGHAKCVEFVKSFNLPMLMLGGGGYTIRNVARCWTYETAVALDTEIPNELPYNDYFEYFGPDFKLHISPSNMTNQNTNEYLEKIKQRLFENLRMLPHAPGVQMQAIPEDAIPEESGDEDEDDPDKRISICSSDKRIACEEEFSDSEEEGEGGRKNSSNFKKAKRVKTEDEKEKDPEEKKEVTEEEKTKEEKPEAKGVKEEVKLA
UniProt Q92769: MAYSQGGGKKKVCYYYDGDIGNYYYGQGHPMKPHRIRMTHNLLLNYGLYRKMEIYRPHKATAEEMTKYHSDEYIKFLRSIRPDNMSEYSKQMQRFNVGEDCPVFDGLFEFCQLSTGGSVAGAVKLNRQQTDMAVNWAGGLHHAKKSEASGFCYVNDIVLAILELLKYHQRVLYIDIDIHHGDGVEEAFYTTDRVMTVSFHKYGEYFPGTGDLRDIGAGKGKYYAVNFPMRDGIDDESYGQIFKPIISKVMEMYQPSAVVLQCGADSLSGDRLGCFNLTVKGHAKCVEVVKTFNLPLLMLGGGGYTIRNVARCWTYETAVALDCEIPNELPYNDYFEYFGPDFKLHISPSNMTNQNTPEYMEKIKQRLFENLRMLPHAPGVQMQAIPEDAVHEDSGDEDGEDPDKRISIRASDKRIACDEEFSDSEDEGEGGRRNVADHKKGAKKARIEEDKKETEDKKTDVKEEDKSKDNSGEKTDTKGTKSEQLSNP
UniProt P78527: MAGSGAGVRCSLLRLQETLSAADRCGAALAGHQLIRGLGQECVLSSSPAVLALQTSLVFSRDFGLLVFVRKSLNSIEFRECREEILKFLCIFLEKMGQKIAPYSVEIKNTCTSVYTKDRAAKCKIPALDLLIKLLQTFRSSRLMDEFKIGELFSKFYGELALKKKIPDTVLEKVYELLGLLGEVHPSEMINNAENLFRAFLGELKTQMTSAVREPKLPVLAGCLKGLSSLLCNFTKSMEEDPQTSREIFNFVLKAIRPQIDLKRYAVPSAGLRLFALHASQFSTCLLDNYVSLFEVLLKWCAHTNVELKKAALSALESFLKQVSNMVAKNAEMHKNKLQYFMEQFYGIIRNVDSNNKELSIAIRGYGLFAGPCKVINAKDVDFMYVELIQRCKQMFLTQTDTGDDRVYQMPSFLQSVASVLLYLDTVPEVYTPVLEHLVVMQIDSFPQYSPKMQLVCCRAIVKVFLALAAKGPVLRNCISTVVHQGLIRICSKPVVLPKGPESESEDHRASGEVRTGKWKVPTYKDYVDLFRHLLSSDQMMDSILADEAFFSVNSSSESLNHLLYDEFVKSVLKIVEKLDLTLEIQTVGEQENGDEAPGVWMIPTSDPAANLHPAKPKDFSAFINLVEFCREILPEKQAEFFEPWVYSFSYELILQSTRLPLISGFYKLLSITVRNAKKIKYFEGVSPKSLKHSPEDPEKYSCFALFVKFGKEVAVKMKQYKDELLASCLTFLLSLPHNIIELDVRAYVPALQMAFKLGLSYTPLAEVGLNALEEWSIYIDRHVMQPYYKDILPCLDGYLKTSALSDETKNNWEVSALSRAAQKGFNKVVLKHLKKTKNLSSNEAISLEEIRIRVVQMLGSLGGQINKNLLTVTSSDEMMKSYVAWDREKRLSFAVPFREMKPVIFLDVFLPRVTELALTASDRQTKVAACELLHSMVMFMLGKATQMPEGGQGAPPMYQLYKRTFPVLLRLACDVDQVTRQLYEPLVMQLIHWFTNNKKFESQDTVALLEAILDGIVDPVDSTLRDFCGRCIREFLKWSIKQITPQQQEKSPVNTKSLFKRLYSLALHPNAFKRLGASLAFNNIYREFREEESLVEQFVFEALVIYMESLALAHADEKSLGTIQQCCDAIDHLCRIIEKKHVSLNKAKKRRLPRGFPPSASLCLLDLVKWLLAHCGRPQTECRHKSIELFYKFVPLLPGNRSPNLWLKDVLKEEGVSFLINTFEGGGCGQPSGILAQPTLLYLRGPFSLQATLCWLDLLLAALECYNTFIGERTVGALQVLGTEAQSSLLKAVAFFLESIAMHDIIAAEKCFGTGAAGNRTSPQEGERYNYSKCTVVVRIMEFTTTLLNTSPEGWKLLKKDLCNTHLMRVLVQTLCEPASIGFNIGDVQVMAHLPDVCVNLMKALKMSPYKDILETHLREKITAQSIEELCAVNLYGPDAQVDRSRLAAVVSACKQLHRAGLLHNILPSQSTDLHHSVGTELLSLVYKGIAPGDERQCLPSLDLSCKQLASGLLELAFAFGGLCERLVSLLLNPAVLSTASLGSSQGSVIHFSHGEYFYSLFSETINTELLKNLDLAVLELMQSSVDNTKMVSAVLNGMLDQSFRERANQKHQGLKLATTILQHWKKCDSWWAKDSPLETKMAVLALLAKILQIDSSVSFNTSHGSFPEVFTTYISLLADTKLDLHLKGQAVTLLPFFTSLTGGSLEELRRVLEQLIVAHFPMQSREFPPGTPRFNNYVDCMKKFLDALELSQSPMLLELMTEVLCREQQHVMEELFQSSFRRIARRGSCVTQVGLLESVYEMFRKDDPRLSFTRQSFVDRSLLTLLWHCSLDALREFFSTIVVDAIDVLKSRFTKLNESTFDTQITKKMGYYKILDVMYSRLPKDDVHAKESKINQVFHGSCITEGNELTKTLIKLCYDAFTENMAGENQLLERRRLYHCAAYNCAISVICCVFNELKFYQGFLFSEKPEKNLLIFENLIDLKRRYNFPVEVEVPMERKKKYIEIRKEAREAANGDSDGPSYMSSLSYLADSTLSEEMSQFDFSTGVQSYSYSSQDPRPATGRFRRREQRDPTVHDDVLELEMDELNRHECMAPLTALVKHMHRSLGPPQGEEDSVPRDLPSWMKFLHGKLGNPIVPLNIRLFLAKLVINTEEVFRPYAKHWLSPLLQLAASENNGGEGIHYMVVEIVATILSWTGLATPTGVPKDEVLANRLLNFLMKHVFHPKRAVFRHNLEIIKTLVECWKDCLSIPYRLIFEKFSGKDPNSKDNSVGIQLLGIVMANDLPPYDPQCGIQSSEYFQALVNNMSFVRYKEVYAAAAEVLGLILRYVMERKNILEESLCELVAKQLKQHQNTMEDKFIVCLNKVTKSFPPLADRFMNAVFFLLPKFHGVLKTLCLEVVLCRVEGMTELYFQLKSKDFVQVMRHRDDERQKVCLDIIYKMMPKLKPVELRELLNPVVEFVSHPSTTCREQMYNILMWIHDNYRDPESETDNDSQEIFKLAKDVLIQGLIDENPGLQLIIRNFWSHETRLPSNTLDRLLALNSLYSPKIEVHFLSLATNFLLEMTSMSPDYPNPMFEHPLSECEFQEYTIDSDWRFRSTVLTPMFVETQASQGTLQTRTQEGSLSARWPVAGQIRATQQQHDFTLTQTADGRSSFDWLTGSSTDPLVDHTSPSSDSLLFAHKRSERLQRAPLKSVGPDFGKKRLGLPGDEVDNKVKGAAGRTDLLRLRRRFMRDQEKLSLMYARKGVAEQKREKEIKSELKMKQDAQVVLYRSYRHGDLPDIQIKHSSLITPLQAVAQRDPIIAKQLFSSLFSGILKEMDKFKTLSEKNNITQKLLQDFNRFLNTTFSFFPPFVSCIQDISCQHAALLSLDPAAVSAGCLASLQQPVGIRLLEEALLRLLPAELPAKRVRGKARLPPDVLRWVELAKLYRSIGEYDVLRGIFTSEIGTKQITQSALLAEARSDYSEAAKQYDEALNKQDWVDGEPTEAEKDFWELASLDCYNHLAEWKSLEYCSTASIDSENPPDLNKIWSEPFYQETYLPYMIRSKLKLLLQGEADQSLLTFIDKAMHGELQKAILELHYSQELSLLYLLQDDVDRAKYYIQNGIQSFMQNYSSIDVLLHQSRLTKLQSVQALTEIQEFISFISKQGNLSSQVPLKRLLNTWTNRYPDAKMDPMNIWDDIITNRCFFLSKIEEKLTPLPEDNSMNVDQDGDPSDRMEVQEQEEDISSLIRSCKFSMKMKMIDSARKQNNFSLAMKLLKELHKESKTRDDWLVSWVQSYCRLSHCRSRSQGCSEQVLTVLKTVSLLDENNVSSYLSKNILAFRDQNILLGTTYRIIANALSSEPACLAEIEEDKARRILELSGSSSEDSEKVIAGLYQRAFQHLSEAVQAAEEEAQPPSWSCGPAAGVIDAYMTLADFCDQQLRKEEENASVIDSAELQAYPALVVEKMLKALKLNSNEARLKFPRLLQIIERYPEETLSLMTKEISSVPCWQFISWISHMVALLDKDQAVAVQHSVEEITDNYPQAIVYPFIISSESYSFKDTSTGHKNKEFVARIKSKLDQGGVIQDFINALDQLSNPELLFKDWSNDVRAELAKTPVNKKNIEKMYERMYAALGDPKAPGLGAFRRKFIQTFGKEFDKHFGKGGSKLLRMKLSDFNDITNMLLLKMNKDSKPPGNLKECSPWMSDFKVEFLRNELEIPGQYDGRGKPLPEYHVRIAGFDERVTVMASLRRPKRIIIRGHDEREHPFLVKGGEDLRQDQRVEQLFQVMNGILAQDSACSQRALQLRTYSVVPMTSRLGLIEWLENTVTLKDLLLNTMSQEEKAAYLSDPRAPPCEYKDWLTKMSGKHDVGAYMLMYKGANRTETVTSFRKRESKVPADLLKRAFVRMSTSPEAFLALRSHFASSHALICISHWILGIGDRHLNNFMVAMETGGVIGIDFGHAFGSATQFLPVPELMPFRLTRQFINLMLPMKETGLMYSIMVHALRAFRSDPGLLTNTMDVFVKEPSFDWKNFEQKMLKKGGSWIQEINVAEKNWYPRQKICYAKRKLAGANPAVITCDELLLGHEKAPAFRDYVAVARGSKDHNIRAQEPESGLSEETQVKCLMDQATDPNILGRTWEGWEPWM

T1: FLAG-tagged ZNF704 (FLAG-ZNF704), stably expressed in MDA-MB-231 cells (human) (UniProt Q6ZNC4)
T1 sequence: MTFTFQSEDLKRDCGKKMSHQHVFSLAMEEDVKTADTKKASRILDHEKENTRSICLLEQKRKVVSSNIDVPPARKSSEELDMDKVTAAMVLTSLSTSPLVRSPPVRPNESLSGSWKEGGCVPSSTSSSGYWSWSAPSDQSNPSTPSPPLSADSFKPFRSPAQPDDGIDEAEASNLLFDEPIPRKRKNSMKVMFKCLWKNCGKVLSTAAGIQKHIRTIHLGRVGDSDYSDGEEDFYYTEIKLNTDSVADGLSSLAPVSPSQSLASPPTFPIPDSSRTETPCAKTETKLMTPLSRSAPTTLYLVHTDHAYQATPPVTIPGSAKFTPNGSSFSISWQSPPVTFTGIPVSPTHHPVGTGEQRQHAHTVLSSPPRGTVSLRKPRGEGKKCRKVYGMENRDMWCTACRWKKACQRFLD

B1: SAP130, endogenous in MDA-MB-231 cells (protein, UniProt Q9H0E3 1-1048)
chain: MGPPRHPQAGEIEAGGAGGGRRLQVEMSSQQFPRLGAPSTGLSQAPSQIANSGSAGLINPAATVNDESGRDSEVSAREHMSSSSSLQSREEKQEPVVVRPYPQVQMLSTHHAVASATPVAVTAPPAHLTPAVPLSFSEGLMKPPPKPTMPSRPIAPAPPSTLSLPPKVPGQVTVTMESSIPQASAIPVATISGQQGHPSNLHHIMTTNVQMSIIRSNAPGPPLHIGASHLPRGAAAAAVMSSSKVTTVLRPTSQLPNAATAQPAVQHIIHQPIQSRPPVTTSNAIPPAVVATVSATRAQSPVITTTAAHATDSALSRPTLSIQHPPSAAISIQRPAQSRDVTTRITLPSHPALGTPKQQLHTMAQKTIFSTGTPVAAATVAPILATNTIPSATTAGSVSHTQAPTSTIVTMTVPSHSSHATAVTTSNIPVAKVVPQQITHTSPRIQPDYPAERSSLIPISGHRASPNPVAMETRSDNRPSVPVQFQYFLPTYPPSAYPLAAHTYTPITSSVSTIRQYPVSAQAPNSAITAQTGVGVASTVHLNPMQLMTVDASHARHIQGIQPAPISTQGIQPAPIGTPGIQPAPLGTQGIHSATPINTQGLQPAPMGTQQPQPEGKTSAVVLADGATIVANPISNPFSAAPAATTVVQTHSQSASTNAPAQGSSPRPSILRKKPATDGAKPKSEIHVSMATPVTVSMETVSNQNNDQPTIAVPPTAQQPPPTIPTMIAAASPPSQPAVALSTIPGAVPITPPITTIAAAPPPSVTVGGSLSSVLGPPVPEIKVKEEVEPMDIMRPVSAVPPLATNTVSPSLALLANNLSMPTSDLPPGASPRKKPRKQQHVISTEEGDMMETNSTDDEKSTAKSLLVKAEKRKSPPKEYIDEEGVRYVPVRPRPPITLLRHYRNPWKAAYHHFQRYSDVRVKEEKKAMLQEIANQKGVSCRAQGWKVHLCAAQLLQLTNLEHDVYERLTNLQEGIIPKKKAATDDDLHRINELIQGNMQRCKLVMDQISEARDSMLKVLDHKDRVLKLLNKNGTVKKVSKLKRKEKV

These molecules were tested against T1, FLAG-tagged ZNF704 (FLAG-ZNF704), stably expressed in MDA-MB-231 cells (human) (assay: affinity purification with mass spectrometry).

binding, binds:
DDB1, endogenous in MDA-MB-231 cells (from UniProt Q16531 1-1140)
HDAC1, endogenous in MDA-MB-231 cells (from UniProt Q13547 1-482) (enzyme)
HDAC2, endogenous in MDA-MB-231 cells (from UniProt Q92769 1-488) (enzyme)
PRKDC, endogenous in MDA-MB-231 cells (from UniProt P78527 1-4128) (enzyme)
B1
